This is one part of the list. The main result of the screen is listed elsewhere. These columns were measured beside it and carry no call. Compounds called inactive in the main read-out are mostly missing here. The note in brackets gives the kind of curve behind each potency; many fits are weak.
Test: qHTS Assay for Modulators of Lamin A Splicing
Settings: HeLa LMNA splicing GFP/RFP minigene ratio, 48 h
Method in brief: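 Read-out is the ratio of GFP to DsRed2 object intensity, acquired by 488 nm laser-scanning cytometry on HeLa lamin A-EGFP minigene reporter cells. Compound incubation 48 hrs at 37 °C in Opti-MEM with 2% FBS; DMSO 0.5% final.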

[1] = measured here: RFP viability control channel
[2] = measured here: GFP splicing reporter channel

Structure (SMILES)	AC50 [1]	AC50 [2]
CC(C)(C)NC(=O)CSCc1ccc(Br)cc1	0.282 µM [falling, full curve, poor fit]	–
Cc1cccc(/C(N)=N/OC(=O)N2CCOCC2)c1	28.2 µM [falling, single point]	14.1 µM [falling, single point]
CC(=O)Nc1ccc(S(=O)(=O)N2CCN(C3CCCCCCC3)CC2)cc1	11.2 µM [rising, single point]	14.1 µM [rising, partial curve, poor fit]
O=C(Nc1nc(-c2ccccc2)cs1)C1COc2ccccc2O1 (stereo not given)	35.5 µM [rising, single point]	–
CC(c1nccs1)N(C)C(=O)CCc1nnc(CCc2ccccc2)o1 (stereo not given)	1.26 µM [falling, full curve, poor fit]	–
NC(=S)N/N=C/c1ccc(-c2cccc([N+](=O)[O-])c2)o1	35.5 µM [falling, single point]	35.5 µM [falling, single point]
O=C(CNC(=O)c1ccccc1F)OCc1csc(-c2ccccc2)n1	35.5 µM [rising, single point]	–
CSC(=S)N/N=C/c1ccc(Br)cc1	3.55 µM [rising, full curve]	–
Fc1ccc(NC(=S)Nc2ccc(Br)cc2)cc1	35.5 µM [rising, single point]	35.5 µM [rising, single point]
CCOC(=O)N1CCN(CCC(=O)Nc2ccc(Br)cc2)CC1	35.5 µM [rising, single point]	–
COC(=O)Cc1ccc(NC(=S)N2CCN(c3ccc(OC)cc3)CC2)cc1	14.1 µM [rising, single point]	–
COC(=O)CSc1nc(-c2ccccc2)cc(-c2ccco2)c1C#N	–	35.5 µM [rising, single point]
Cc1ccc(-n2nnnc2SCC(=O)NC(=O)Nc2ccc3c(c2)OCCO3)cc1	–	17.8 µM [rising, single point]
CCN(CC)S(=O)(=O)c1ccc2oc(C(=O)NCc3ccc(C)cc3)c(C)c2c1	14.1 µM [rising, single point]	–
COC(=O)c1cc(NC(=O)Nc2ccccc2)ccc1Cl	3.55 µM [rising, full curve, poor fit]	–
CCn1cnc2sc(C(=O)N(Cc3ccc(N(C)C)cc3)Cc3ccco3)c(C)c2c1=O	8.91 µM [rising, partial curve]	–
Cc1nn(-c2ccccc2)c(C)c1C(=O)OCC(=O)c1c(N)n(CC(C)C)c(=O)n(C)c1=O	5.62 µM [rising, partial curve]	1.41 µM [rising, partial curve]
O=C(O)CCN1CC2([N+](=O)[O-])CC=C(OCCO)C([N+](=O)[O-])(C1)C2 (stereo not given)	3.55 µM [rising, partial curve, poor fit]	2.82 µM [rising, partial curve, poor fit]
COc1ccc(C(=O)Nc2ccc(-c3ccc(C)o3)cc2)cc1S(=O)(=O)N1CCOCC1	2.24 µM [rising, full curve, poor fit]	–
COc1cccc(C(=O)Nc2ccc3nc(SCC(=O)N4CCOCC4)sc3c2)c1	31.6 µM [rising, single point]	–
Cn1c(=O)n(C)c2cc(NS(=O)(=O)c3ccc(F)cc3)ccc21	–	5.62 µM [falling, partial curve, poor fit]
CCN1CCN(C(C)C(=O)Nc2c(C)n(C)n(-c3ccccc3)c2=O)CC1 (stereo not given)	0.0355 µM [rising, full curve, poor fit]	–
Cc1ccc(S(=O)(=O)NC(=O)Nc2cc(C)ccc2F)cc1	0.178 µM [falling, full curve, poor fit]	–
CCCn1c2c(c(O)c(C(=O)Nc3ncccc3O)c1=O)CCCC2	15.8 µM [rising, partial curve, poor fit]	–
CCN(CC)c1ccc(/C=N/NC(=O)C(O)(c2ccccc2)c2ccccc2)o1	35.5 µM [rising, single point]	35.5 µM [rising, single point]
CSCCC(NS(=O)(=O)c1ccc2c(c1)oc(=O)n2C)C(=O)N1CCN(c2cc(C)ccc2C)CC1 (stereo not given)	11.2 µM [falling, partial curve, poor fit]	12.6 µM [falling, partial curve, poor fit]
COc1ccc(C2CC(=O)NC(NC(=O)c3ccc(Br)cc3)=N2)c(OC)c1OC (stereo not given)	0.000708 µM [falling, full curve]	0.1 µM [falling, partial curve]

Structure (SMILES)	AC50 [1]	AC50 [2]
Cc1cccc(-n2nnnc2SCC(=O)c2cc(C)n(CC3CCCO3)c2C)c1 (stereo not given)	12.6 µM [rising, single point]	–
Cc1ccccc1CS(=O)(=O)c1nnc([C@H](CC(C)C)NC(=O)OC(C)(C)C)o1	35.5 µM [rising, single point]	–
COc1ccc(-c2nc(C)sc2CC(=O)O)cc1OC	0.126 µM [rising, single point]	0.1 µM [rising, full curve, poor fit]
CC(C)OC(=O)CSc1nc(N)c(C#N)c(-c2cccs2)c1C#N	11.2 µM [rising, partial curve, poor fit]	11.2 µM [rising, partial curve, poor fit]
O=C(/C=C\c1ccc2c(c1)OCO2)NC1CC(=O)N(c2ccc(Cl)cc2)C1 (stereo not given)	–	12.6 µM [rising, partial curve]
Cn1cc([N+](=O)[O-])c(C(=O)Nc2cc(Oc3ccccc3)cc([N+](=O)[O-])c2)n1	0.2 µM [rising, full curve, poor fit]	35.5 µM [falling, single point]
O=C(Nc1ccc(N2CCCC2)c(Cl)c1)c1cccc(-c2cc3ccccc3oc2=O)c1	0.00891 µM [rising, full curve, poor fit]	–
CCN(Cc1ccccc1)C(=O)CCc1nc(-c2ccc(C)cc2)no1	35.5 µM [rising, single point]	35.5 µM [rising, single point]
CCN(CC)S(=O)(=O)c1cccc(C(=O)N[C@H](C(=O)Nc2nc3ccc(F)cc3s2)C(C)C)c1	5.01 µM [rising, partial curve]	–
Cc1cc(NC(=O)COC(=O)c2ccccc2S(=O)(=O)N(C)c2ccccc2)no1	14.1 µM [rising, partial curve, poor fit]	–
O=S(=O)(Nc1ccc(N2CCCCC2)cc1)c1ccc(F)c(F)c1	15.8 µM [rising, partial curve]	10 µM [rising, partial curve, poor fit]
Cc1ccnc2nc(C(=O)Nc3nc(-c4ccccn4)cs3)nn12	35.5 µM [falling, single point]	–
O=C(C1CCCN(c2ncccn2)C1)N1CCc2ccccc21 (stereo not given)	31.6 µM [rising, single point]	–
O=S(=O)(c1ccc(Cl)nc1)N1CCCc2ccccc21	11.2 µM [rising, single point]	–
CCCCc1nn2c(=O)cc(COC(=O)c3ccc(NC(=O)CCc4ccccc4)cc3)nc2s1	0.112 µM [rising, full curve, poor fit]	0.0794 µM [rising, full curve, poor fit]
O=C1[O][Bi][O]c2ccccc21	0.0501 µM [rising, full curve, poor fit]	–
CCn1c(COc2ccc(C)cc2)nnc1SCC(=O)C(C)(C)C	35.5 µM [rising, single point]	35.5 µM [rising, single point]
Cc1nn(C)c(C(=O)NC2C3CC4CC(C3)CC2C4)c1Cl (stereo not given)	35.5 µM [rising, single point]	–
CCCC(C)NC(=O)COc1ccc(Sc2ccc(OCC(=O)NC(C)CCC)cc2)cc1 (stereo not given)	5.01 µM [rising, full curve]	–
O=C(N/N=C/c1cc2c3c(c1O)CCCN3CCC2)c1ccccc1O	0.708 µM [rising, partial curve, poor fit]	0.316 µM [rising, full curve, poor fit]
CC1(C)CCCC2=C1CC1C(=O)N(Cc3cccnc3)C(=O)C1C2 (stereo not given)	35.5 µM [rising, single point]	–
CC(CCc1ccccc1)NC(=O)COC(=O)c1ccc(S(C)(=O)=O)c([N+](=O)[O-])c1 (stereo not given)	35.5 µM [falling, partial curve, poor fit]	10 µM [falling, partial curve]
CC(C)(C)c1ccc(/C=C/C(=O)Nc2ncccn2)cc1	22.4 µM [rising, partial curve, poor fit]	4.47 µM [rising, partial curve, poor fit]
CC(C)c1ccc(N(CC(=O)NCc2ccc(F)cc2)C(=O)c2csnn2)cc1	0.891 µM [falling, full curve, poor fit]	0.891 µM [falling, full curve, poor fit]
O=C(c1ccco1)N1CCN(c2ncnc3c2nnn3Cc2ccccc2Cl)CC1	12.6 µM [rising, partial curve]	6.31 µM [rising, partial curve, poor fit]
CN(C)c1nc(NCc2ccccc2)nc(N/N=C/c2ccc3c(c2)OCO3)n1	35.5 µM [rising, single point]	31.6 µM [rising, single point]

Four structures already listed, arranged by molar mass, ascending:
Structure (SMILES)	AC50 [1]	AC50 [2]
COc1ccc(-c2nc(C)sc2CC(=O)O)cc1OC	0.126 µM [rising, single point]	0.1 µM [rising, full curve, poor fit]
O=C(N/N=C/c1cc2c3c(c1O)CCCN3CCC2)c1ccccc1O	0.708 µM [rising, partial curve, poor fit]	0.316 µM [rising, full curve, poor fit]
Cn1cc([N+](=O)[O-])c(C(=O)Nc2cc(Oc3ccccc3)cc([N+](=O)[O-])c2)n1	0.2 µM [rising, full curve, poor fit]	35.5 µM [falling, single point]
Cc1ccccc1CS(=O)(=O)c1nnc([C@H](CC(C)C)NC(=O)OC(C)(C)C)o1	35.5 µM [rising, single point]	–
